Experimental data published in article PMC7819943, “Rice protein-binding microarrays: a tool to detect cis-acting elements near promoter regions in rice”.
Some of the results follow.

Target: T1, OsSMF1 (Oryza sativa, UniProt Q6ZLB0 1-436)
T1 sequence: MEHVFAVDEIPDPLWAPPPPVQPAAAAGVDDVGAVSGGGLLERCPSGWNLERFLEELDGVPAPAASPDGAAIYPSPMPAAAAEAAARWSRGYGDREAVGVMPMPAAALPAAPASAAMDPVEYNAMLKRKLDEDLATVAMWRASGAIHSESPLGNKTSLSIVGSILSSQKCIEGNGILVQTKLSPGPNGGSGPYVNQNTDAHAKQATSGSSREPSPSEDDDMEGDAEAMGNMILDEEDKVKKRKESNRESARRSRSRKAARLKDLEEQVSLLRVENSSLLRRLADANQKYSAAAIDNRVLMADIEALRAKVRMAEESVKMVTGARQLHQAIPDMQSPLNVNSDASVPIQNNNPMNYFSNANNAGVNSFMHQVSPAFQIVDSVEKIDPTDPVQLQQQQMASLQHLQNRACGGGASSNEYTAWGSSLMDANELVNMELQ
Experiment: protein-binding microarray (RPBM); PBS, 2% BSA, 51.3 ng/ul salmon testes DNA, 50 uM zinc acetate, 200 nM TF, 25 C, 1 h; high values mean tight binding
Settings: protein: recombinant; tags: N-terminal polyhistidine and DsRed monomer fusion (pET32a); chain copies: 2; label: CyDye5-dUTP incorporated in the synthesized complementary strand; 3' TTTTT single-stranded linker to array surface; dsDNA, one strand shown
Method in brief: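 Using Ni–NTA, transcription factors fused N-terminally to polyhistidine and DsRed were purified after expression in E. coli BL21-CodonPlus. These were incubated at 200 nM with a blocked, double-stranded custom Agilent array for 1 h at 25 °C in a buffer containing 50 µM zinc acetate, and the array was washed. The binding signal is per-feature fluorescence intensity (arbitrary units) on an Axon 4000B scanner.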

Row | Sequence | binding signal
1 | AACACACAGTCGTGGCAAATCCTAATCTGCAATCTGCAAGCGGAGTCACCTAGTGCAG | 4660 fluorescence intensity (a.u.)
2 | ACCGAAATTCAGTCATGCAGATGTGGATTCAGCCACATTTCGGAGTCACCTAGTGCAG | 3920 fluorescence intensity (a.u.)
3 | CATTTCGGTAGCGTTGGCTTTGTTTAGTTTGATGTCTTTACGGAGTCACCTAGTGCAG | 3330 fluorescence intensity (a.u.)
4 | GGGGCCCACAGGCCCAACCCAACGCATCCGATTGAACGTTCGGAGTCACCTAGTGCAG | 3440 fluorescence intensity (a.u.)
5 | GTAAACCGCACCGTGACGCGACGCGACCCCGAAGCCGTTCCGGAGTCACCTAGTGCAG | 4790 fluorescence intensity (a.u.)
6 | CCTTAATGTTCAACGTGTCATGCATTAGTGAAATAATAGCCGGAGTCACCTAGTGCAG | 3610 fluorescence intensity (a.u.)
7 | TGGCGACGGGATTCGTCGTCGTCGTCGCCATGTGTCAGCTCGGAGTCACCTAGTGCAG | 5220 fluorescence intensity (a.u.)
8 | GGGTCCAGCGCAGGAATCCCATTCGATTGATGACGTGGCGCGGAGTCACCTAGTGCAG | 35700 fluorescence intensity (a.u.)
9 | GTACCTGTTTCAAGAACACAATGATGAGCTGTACCATCATCGGAGTCACCTAGTGCAG | 3170 fluorescence intensity (a.u.)
10 | GGGCCTACCCTTTATTGCATCACTCGACTCCAACTATAGTCGGAGTCACCTAGTGCAG | 3980 fluorescence intensity (a.u.)
11 | ACCGAGTAAATTGTTTACTATCGACAGTTACACGTTACCACGGAGTCACCTAGTGCAG | 3260 fluorescence intensity (a.u.)
12 | CGTCCAAGCACGCCGCCGCCTCGTCGTCCTCGCTGGCGGACGGAGTCACCTAGTGCAG | 3290 fluorescence intensity (a.u.)
13 | AGACGAACATCTTCCCCTATCGCCGCCGTGTCAATGTCACCGGAGTCACCTAGTGCAG | 4370 fluorescence intensity (a.u.)
14 | TCTAACGACAAGTTGTGATGACGGAGAGGGTGACAACAGCCGGAGTCACCTAGTGCAG | 3820 fluorescence intensity (a.u.)
15 | TCCTGCAACATCCTGATCTCCTCTAGAAGTAAGCAACTCGCGGAGTCACCTAGTGCAG | 27700 fluorescence intensity (a.u.)
16 | ATCAACAGAAGAGAGAAGCTCCTCAATGTTTCCTGCACCGCGGAGTCACCTAGTGCAG | 15300 fluorescence intensity (a.u.)
17 | AAATTTAGGGTTACATAGTGATCAATGAATGCGTCATGAACGGAGTCACCTAGTGCAG | 4590 fluorescence intensity (a.u.)
18 | ACCGGAGTCACTCAAACATGAATTCATTGGCAATCACATTCGGAGTCACCTAGTGCAG | 3820 fluorescence intensity (a.u.)
19 | ACCTACAGGCACGCGGCACGCCATGGCAAGTGCAATATTGCGGAGTCACCTAGTGCAG | 3310 fluorescence intensity (a.u.)
20 | TTTTAGTTTTCCTCGATTAATTAATACTGTCTTTAAATCTCGGAGTCACCTAGTGCAG | 23300 fluorescence intensity (a.u.)
21 | CAGGCCTATCTTTGACAGATCAGATTGTCTGATATTCTGACGGAGTCACCTAGTGCAG | 3270 fluorescence intensity (a.u.)

Row | Sequence | binding signal
22 | TTGATGTATCAAGCATGGTGACGTTACGTATTATGATTGGCGGAGTCACCTAGTGCAG | 4900 fluorescence intensity (a.u.)
23 | ACCCTGATCGCAAGTCATCTCATCAACCACTGCTACACGTCGGAGTCACCTAGTGCAG | 3320 fluorescence intensity (a.u.)
24 | TCTCCAGCACCTTGGAACGGGGCTTCGGCCCGAACCGCGGCGGAGTCACCTAGTGCAG | 27000 fluorescence intensity (a.u.)
25 | CCGGGCGCTCCTCTCGTTTCCTGGCCCATCATCCGTCACCCGGAGTCACCTAGTGCAG | 3300 fluorescence intensity (a.u.)
26 | CCGTGTCCAAGTCCACAATACAGGTCAGAAAAGCTCGTTTCGGAGTCACCTAGTGCAG | 3300 fluorescence intensity (a.u.)
27 | TGCCCAAGTCGGTGACTTTGATTGCGCCGCGTGCCTCGCCCGGAGTCACCTAGTGCAG | 3970 fluorescence intensity (a.u.)
28 | CGAATAGCCGCGACCTACGAGGACACCACGTCACGACTTACGGAGTCACCTAGTGCAG | 8200 fluorescence intensity (a.u.)
29 | GATGGCAAGTGCATGGCATGGAAGGGGCCGGTCCATTGATCGGAGTCACCTAGTGCAG | 19300 fluorescence intensity (a.u.)
30 | GTAGGGAACGTGGCTGAAGATGTTCCCACCATTGCTCCAGCGGAGTCACCTAGTGCAG | 3550 fluorescence intensity (a.u.)
31 | ATGTTTAATCACACGTAATCAGCTGCGGCGGCACCGGAGCCGGAGTCACCTAGTGCAG | 6530 fluorescence intensity (a.u.)
32 | TACGGGTTAGGGTTTGGGGTTGGGGTCAAGGTAGGAGGGGCGGAGTCACCTAGTGCAG | 3500 fluorescence intensity (a.u.)
33 | TGTGCCTAGATAGCGTCGTCAGCCGCTGCCATTGCTGTAACGGAGTCACCTAGTGCAG | 3140 fluorescence intensity (a.u.)
34 | ACTTTTACTTTTGTTCCAGTATTCGCTTAAGGATAGGAATCGGAGTCACCTAGTGCAG | 12400 fluorescence intensity (a.u.)
35 | CCCCTCCGCCTCGTCCCCATCGGCCACTGCCACCACCGCCCGGAGTCACCTAGTGCAG | 3700 fluorescence intensity (a.u.)
36 | GCCAATCTGTGGGTGCCACGTCACTTTTCACACAGAGGCACGGAGTCACCTAGTGCAG | 14300 fluorescence intensity (a.u.)
37 | TTCATAGGAAAGGAGCTGACTCGCCGCCACCGATCGCCAACGGAGTCACCTAGTGCAG | 3170 fluorescence intensity (a.u.)
38 | GAGGGTGAGTTGGACTGACATGCGGGGCCCACGTGGGTCCCGGAGTCACCTAGTGCAG | 5560 fluorescence intensity (a.u.)
39 | ATCGTGCTAGTATGACTCGTCGCCAAGCCATGCTTGGGCCCGGAGTCACCTAGTGCAG | 4570 fluorescence intensity (a.u.)
40 | GATCTGTCACTGTATGGAATGATGCAAAGCTGCTGCTGATCGGAGTCACCTAGTGCAG | 32000 fluorescence intensity (a.u.)
41 | TTCCCCGCCCGCGCACTTGGAAACCTAACCGTCCTCGGTGCGGAGTCACCTAGTGCAG | 3840 fluorescence intensity (a.u.)
42 | ATACATGTTAGGGTGACACACCACTGCTTGCCCGTGTGTTCGGAGTCACCTAGTGCAG | 4940 fluorescence intensity (a.u.)

Single values from the results shown:
Value for ATCGTGCTAGTATGACTCGTCGCCAAGCCATGCTTGGGCCCGGAGTCACCTAGTGCAG under binding signal: 4570 fluorescence intensity (a.u.)
Value for GCCAATCTGTGGGTGCCACGTCACTTTTCACACAGAGGCACGGAGTCACCTAGTGCAG under binding signal: 14300 fluorescence intensity (a.u.)
